The values that follow come from patent US20200270359A1.

These are yes or no findings as the source states them, for the method shown. Some binding calls cover weakened binding; strength is not graded here.

The target in test [1] is T1, human (Homo sapiens) CD37 (human (Homo sapiens)) (UniProt P11049).
T1 sequence: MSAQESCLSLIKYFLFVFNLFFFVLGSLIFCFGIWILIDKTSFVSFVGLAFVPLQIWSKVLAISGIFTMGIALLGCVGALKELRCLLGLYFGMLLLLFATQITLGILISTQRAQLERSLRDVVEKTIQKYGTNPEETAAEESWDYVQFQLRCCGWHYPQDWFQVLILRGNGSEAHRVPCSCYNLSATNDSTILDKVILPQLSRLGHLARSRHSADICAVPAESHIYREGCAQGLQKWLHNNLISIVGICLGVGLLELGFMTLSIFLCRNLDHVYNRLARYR
Kind of test: binding to Daudi cells (data not shown).

Test [2] has as its target T1, human (Homo sapiens) CD37 (human (Homo sapiens)). The experiment in a line: flow cytometry on Daudi cells.

B1: IgG1-G28.1-S239D-I332E (antibody, V domains shown)
VH: AVQLQQSGPELEKPGASVKISCKASGYSFTGYNMNWVKQNNGKSLEWIGNIDPYYGGTTYNRKFKGKATLTVDKSSSTAYMQLKSLTSEDSAVYYCARSVGPMDYWGQGTSVTVSS
VL: DIQMTQSPASLSASVGETVTITCRTSENVYSYLAWYQQKQGKSPQLLVSFAKTLAEGVPSRFSGSGSGTQFSLKISSLQPEDSGSYFCQHHSDNPWTFGGGTELEIKR
Turning to B1, the binding result in test [1] was “binds”.

B2: IgG1-005-H1L2-K409R-E430G (antibody, V domains shown)
VH: EQSVVESGGGLVQPGGSLRLSCTVSGFSLSSNAMNWVRQAPGKGLEWIGLIYASGNTDYASWAKGRFTISKTSTTVYLKITSPTAEDTATYFCAREGSVWGAAFDPWGQGTLVTVSS
VL: AYDMTQSPSSVSASVGDRVTITCQASQSISNWLAWYQQKPGKAPKQLIYAASTLASGVPSRFKGSGSGTDFTLTISSLQPEDFATYYCQQGYSNSNIDNTFGGGTKVEIKR
With B2, the binding result in test [2] is given as “binds”.
